Data taken from article PMC9438028.

Tests used:
[1] = target: HA tagged LvSTING (Litopenaeus vannamei stimulator of interferon genes) (Litopenaeus vannamei); assay: co-IP; Drosophila S2 cells co-transfected with two plasmids (LvRelish-V5 or LvIKKβ-FLAG with LvSTING-HA or GFP-HA), lysed 48 h after transfection in IP lysis buffer; anti-HA or anti-V5 agarose affinity gel; western blot with anti-FLAG, anti-V5, anti-HA
[2] = target: V5 tagged LvRelish (Litopenaeus vannamei) (UniProt B1NA65); assay: co-IP; S2 cells co-expressing FLAG-LvIKKβ and V5-LvRelish with or without HA-LvSTING; LvIKKβ co-immunoprecipitated with V5-LvRelish; less LvIKKβ without LvSTING

Row | Substance | binding [1] | binding [2]
1 | V5 tagged LvRelish (from UniProt B1NA65) | binds | 
2 | FLAG-tagged LvIKKβ (from UniProt G5CJV9) (enzyme) | binds | binds

No constants are given. Whether binding was seen depends on the method and setting. In cells and extracts the contact can be indirect. A result given as binding can be weak or reduced; the word gives no strength.
